Record: PubChem BioAssay AID1159584 (Peter MacCallum Cancer Centre, 2016)
The whole screen tested about 18,000 reagents; shown is a part drawn at random. Not stated in the record: the amount of reagent, the time to read-out.

- Aim: 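Genes whose loss is lethal only together with E-cadherin loss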 (primary screen)
- Cell system: human MCF10A breast epithelial cells, parental and CDH1-null
- Knock-down reagent: siRNA against human genes
- Measurement: 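ATP luminescence (CellTiter-Glo) viability per line relative to mean mock wells over all plates, and the ratio of CDH1-null to parental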
- Reading the numbers: CDH1-null / parental viability ratio: higher = CDH1-null cells survive relatively better than parental; CDH1-null viability vs mock: higher = more viable CDH1-null cells; parental viability vs mock: higher = more viable parental cells

target | CDH1-null / parental viability ratio | CDH1-null viability vs mock (fraction of mock) | parental viability vs mock (fraction of mock)
FLJ46838 (retired record) | 1.2 | 1.04 | 0.87
ADCY1 | 0.93 | 0.82 | 0.88
FAM110D | 1 | 0.54 | 0.54
UBOX5 | 0.96 | 0.67 | 0.7
PRPSAP1 | 0.93 | 0.7 | 0.75
MCHR2 | 0.69 | 0.54 | 0.78
APOL2 | 1.01 | 1.01 | 1
TMEM138 | 0.84 | 0.8 | 0.95
RRAGA | 0.85 | 0.82 | 0.97
GSTO2 | 1.08 | 0.8 | 0.74
KIRREL1 | 0.84 | 0.66 | 0.79
ZFYVE27 | 0.59 | 0.48 | 0.81
LGI2 | 0.87 | 0.7 | 0.8
CHRFAM7A | 0.88 | 0.87 | 0.99
HR | 1 | 0.96 | 0.96
ZXDB | 0.7 | 0.38 | 0.54
BAD | 1.18 | 1.06 | 0.9
POR | 0.95 | 0.84 | 0.88
TRIM25 | 0.92 | 0.57 | 0.62
VPS72 | 0.86 | 0.7 | 0.81
RPL36AL | 1.02 | 0.84 | 0.82
DDTL | 0.97 | 0.76 | 0.78
RPS17P16 | 1.06 | 0.86 | 0.81
BTBD7 | 1.16 | 0.95 | 0.82
BMP6 | 1.03 | 1.23 | 1.19
KMT2C | 0.97 | 0.91 | 0.94
IL31 | 1.08 | 0.8 | 0.74
PPCDC | 1.18 | 0.67 | 0.57
RTL3 | 1.52 | 0.76 | 0.5
SLC26A5 | 0.88 | 0.64 | 0.73
JAK2 | 0.76 | 0.72 | 0.95
EMC9 | 1.08 | 0.83 | 0.77
PLEKHH3 | 1.04 | 0.77 | 0.74
ARMCX3 | 0.94 | 0.9 | 0.96
GBP3 | 0.97 | 0.57 | 0.59
LUC7L2 | 1.09 | 0.48 | 0.44
AK7 | 1.09 | 1.12 | 1.03
LACRT | 1.16 | 1.17 | 1.01
CST2 | 1.02 | 0.44 | 0.43
NEURL3 | 0.96 | 0.94 | 0.98
PSENEN | 1.1 | 0.86 | 0.78
PDE4C | 0.83 | 0.68 | 0.82
OR56B4 | 1.39 | 0.89 | 0.64
DEFB125 | 0.95 | 0.82 | 0.86
ZFTRAF1 | 1.03 | 0.8 | 0.78
CROCC | 1.12 | 0.56 | 0.5
PLCH1 | 1.02 | 0.97 | 0.95
ZNF431 | 1.18 | 1.23 | 1.04

Next part (3 carried over from the part before).
target | CDH1-null / parental viability ratio | CDH1-null viability vs mock (fraction of mock) | parental viability vs mock (fraction of mock)
CROCC | 1.12 | 0.56 | 0.5
PLCH1 | 1.02 | 0.97 | 0.95
ZNF431 | 1.18 | 1.23 | 1.04
NIT2 | 0.9 | 0.92 | 1.02
MSRA | 1.03 | 0.68 | 0.66
ERH | 0.93 | 0.53 | 0.57
ZNF253 | 1.06 | 1.05 | 0.99
METTL17 | 0.95 | 0.94 | 0.99
RTKN | 0.71 | 0.51 | 0.72
PNMA5 | 1.09 | 0.6 | 0.55
DIPK1C | 0.96 | 0.73 | 0.76
TMPRSS12 | 0.91 | 0.95 | 1.04
SATB2 | 1.01 | 0.92 | 0.91
GFRA3 | 0.74 | 0.7 | 0.95
ODF1 | 0.88 | 0.69 | 0.78
ZNF25 | 1.26 | 0.72 | 0.57
FAM50B | 1.02 | 0.43 | 0.42
ACAA2 | 0.8 | 0.75 | 0.94
ATXN10 | 0.9 | 0.66 | 0.73
PDGFB | 1 | 0.96 | 0.96
TIGAR | 1.07 | 1.09 | 1.02
LTV1 | 0.94 | 0.58 | 0.62
TSLIG1 | 0.76 | 0.52 | 0.68
OR14C36 | 0.87 | 0.71 | 0.82
STRN4 | 0.86 | 0.65 | 0.76
ZNF384 | 0.61 | 0.42 | 0.69
CLIC6 | 1.11 | 0.92 | 0.83
CGB1 | 1 | 0.7 | 0.7
INTS5 | 1.17 | 0.94 | 0.8
ZNF333 | 0.89 | 0.71 | 0.8
NUAK1 | 1.04 | 0.96 | 0.92
DIPK2A | 1.13 | 0.96 | 0.85
SYPL2 | 1 | 0.88 | 0.88
YBX3 | 0.75 | 0.55 | 0.73
CPAMD8 | 1.46 | 0.7 | 0.48
UVRAG | 0.84 | 0.79 | 0.94
C20orf204 | 0.9 | 0.47 | 0.52
NMB | 0.82 | 0.41 | 0.5
ZNF600 | 0.91 | 0.8 | 0.88
C4orf33 | 1.04 | 0.83 | 0.8
CHMP1B | 0.89 | 0.55 | 0.62
HLA-B | 0.75 | 0.3 | 0.4
